Test results taken from the supplement of paper PMC12067093, “Discovery and optimisation of a covalent ligand for TRIM25 and its application to targeted protein ubiquitination” (Chemical Science, 2025).
The list shows a part of the results.

Amino acid sequences for entries named in this document (tags omitted). A change or cut given only in a name is not applied to a line headed by its entry.
UniProt P23528, whole entry, looked up: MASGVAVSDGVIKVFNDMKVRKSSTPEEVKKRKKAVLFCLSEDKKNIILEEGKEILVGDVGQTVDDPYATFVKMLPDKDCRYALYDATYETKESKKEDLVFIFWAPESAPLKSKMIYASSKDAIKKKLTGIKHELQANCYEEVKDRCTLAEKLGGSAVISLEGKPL
UniProt O76071: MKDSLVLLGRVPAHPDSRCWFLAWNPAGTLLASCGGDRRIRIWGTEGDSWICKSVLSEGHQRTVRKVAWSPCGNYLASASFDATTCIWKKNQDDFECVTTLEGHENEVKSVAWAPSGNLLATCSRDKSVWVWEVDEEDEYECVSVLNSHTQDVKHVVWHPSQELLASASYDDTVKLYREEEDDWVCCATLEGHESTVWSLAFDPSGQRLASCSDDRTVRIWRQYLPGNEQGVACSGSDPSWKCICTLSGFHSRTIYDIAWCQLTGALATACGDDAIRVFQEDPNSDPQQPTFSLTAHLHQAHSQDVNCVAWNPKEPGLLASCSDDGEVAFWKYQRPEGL
UniProt Q9NX63: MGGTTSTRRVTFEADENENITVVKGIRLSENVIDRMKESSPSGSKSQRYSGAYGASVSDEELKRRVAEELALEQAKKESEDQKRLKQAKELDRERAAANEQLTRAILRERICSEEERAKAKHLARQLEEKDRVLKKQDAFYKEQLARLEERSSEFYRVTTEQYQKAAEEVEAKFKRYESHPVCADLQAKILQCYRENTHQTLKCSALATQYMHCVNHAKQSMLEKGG
UniProt O14578, whole entry, looked up: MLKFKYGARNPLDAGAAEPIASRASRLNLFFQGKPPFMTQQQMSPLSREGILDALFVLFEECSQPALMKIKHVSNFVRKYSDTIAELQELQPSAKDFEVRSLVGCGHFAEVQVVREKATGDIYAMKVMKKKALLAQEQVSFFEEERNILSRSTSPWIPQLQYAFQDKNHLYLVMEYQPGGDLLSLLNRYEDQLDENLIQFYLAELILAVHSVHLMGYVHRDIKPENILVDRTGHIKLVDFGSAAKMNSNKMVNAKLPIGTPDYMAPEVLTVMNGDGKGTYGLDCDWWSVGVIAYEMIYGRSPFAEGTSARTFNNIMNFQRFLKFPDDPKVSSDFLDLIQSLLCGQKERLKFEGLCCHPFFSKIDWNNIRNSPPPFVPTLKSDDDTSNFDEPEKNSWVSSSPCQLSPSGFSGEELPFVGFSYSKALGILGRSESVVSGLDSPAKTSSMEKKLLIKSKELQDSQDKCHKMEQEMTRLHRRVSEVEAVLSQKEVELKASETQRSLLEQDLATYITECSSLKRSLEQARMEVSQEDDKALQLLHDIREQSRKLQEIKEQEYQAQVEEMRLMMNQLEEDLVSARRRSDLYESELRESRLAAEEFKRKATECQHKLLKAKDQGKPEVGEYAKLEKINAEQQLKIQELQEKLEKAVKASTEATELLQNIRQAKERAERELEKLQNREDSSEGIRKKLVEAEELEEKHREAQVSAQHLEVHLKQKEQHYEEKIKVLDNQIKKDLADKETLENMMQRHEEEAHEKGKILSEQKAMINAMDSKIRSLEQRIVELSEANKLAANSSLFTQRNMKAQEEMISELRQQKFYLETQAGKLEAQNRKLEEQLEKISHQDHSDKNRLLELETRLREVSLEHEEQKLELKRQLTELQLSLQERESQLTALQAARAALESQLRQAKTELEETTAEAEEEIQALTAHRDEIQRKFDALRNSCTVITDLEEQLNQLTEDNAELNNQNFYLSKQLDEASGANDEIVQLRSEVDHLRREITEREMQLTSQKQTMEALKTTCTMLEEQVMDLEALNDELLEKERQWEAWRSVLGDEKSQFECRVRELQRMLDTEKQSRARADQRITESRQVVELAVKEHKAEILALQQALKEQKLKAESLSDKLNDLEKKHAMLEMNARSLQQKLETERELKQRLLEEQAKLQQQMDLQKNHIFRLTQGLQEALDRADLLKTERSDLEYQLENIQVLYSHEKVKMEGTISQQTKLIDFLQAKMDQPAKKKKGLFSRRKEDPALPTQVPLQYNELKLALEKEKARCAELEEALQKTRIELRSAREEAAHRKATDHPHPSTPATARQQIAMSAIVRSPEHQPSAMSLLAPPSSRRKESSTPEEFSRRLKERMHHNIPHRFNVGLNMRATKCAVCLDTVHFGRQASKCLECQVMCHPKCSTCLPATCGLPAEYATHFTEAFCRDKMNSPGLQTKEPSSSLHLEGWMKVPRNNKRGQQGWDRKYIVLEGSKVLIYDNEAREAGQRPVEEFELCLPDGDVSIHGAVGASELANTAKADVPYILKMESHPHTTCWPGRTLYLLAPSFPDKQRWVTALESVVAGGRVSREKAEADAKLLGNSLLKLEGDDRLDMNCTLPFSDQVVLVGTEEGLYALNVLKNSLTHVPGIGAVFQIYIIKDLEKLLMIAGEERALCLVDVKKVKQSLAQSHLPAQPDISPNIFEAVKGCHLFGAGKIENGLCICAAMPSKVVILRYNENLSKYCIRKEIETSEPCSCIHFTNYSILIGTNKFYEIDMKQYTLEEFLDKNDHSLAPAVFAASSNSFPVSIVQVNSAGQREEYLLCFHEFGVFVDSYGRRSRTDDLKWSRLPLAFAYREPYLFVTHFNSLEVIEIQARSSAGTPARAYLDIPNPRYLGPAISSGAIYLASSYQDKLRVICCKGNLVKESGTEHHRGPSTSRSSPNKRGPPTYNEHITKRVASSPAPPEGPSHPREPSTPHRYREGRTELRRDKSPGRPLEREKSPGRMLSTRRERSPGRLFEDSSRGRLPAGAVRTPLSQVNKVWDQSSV
UniProt Q14008: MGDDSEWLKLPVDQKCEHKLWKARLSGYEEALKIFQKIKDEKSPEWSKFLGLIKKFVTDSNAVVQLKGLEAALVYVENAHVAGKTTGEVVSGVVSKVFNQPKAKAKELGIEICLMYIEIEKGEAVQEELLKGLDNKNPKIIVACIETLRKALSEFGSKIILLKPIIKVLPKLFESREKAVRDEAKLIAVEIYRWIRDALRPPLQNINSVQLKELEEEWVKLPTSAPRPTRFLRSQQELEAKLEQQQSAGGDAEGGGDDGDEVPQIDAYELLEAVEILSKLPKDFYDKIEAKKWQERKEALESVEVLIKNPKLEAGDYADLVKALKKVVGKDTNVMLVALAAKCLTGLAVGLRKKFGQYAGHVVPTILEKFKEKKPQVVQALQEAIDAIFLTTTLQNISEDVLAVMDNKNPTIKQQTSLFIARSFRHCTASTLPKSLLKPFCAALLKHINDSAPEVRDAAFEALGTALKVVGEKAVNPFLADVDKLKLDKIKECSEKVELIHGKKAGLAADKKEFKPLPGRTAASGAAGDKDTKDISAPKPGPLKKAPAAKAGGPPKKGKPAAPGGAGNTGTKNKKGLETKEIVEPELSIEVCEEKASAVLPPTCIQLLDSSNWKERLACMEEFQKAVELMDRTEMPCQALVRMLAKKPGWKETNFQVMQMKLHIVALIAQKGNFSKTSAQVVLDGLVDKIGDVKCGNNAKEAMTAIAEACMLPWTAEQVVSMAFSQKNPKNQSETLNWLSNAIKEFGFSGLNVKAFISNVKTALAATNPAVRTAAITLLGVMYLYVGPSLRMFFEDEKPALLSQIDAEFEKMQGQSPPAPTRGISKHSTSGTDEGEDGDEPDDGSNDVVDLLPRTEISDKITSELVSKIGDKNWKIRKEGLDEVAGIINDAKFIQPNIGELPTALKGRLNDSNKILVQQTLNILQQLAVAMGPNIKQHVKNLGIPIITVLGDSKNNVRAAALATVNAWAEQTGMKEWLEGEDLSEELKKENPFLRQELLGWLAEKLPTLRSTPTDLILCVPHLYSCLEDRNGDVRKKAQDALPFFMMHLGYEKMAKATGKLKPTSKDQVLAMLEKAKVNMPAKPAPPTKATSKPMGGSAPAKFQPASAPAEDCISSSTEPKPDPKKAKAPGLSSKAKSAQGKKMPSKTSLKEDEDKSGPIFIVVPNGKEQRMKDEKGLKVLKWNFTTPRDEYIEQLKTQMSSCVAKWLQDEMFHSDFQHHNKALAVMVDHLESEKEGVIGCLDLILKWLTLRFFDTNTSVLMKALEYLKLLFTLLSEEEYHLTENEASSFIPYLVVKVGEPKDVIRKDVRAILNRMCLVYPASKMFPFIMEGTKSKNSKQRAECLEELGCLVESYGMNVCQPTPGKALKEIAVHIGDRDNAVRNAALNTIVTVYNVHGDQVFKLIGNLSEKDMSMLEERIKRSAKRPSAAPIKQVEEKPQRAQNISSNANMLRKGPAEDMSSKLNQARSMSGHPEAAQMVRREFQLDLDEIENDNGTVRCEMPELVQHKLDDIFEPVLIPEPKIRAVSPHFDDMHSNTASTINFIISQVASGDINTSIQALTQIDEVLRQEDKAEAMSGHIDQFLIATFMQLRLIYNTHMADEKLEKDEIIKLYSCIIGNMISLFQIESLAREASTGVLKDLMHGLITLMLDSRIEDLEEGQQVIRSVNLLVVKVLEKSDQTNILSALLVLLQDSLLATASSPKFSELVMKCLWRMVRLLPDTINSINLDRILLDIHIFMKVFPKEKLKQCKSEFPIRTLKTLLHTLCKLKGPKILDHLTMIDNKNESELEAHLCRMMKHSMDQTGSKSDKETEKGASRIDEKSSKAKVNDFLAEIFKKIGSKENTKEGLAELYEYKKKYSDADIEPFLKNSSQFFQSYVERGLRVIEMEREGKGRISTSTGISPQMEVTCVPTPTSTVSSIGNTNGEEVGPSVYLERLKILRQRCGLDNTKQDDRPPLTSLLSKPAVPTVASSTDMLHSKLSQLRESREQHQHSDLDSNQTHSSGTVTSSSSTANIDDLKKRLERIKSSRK
UniProt Q96EP1: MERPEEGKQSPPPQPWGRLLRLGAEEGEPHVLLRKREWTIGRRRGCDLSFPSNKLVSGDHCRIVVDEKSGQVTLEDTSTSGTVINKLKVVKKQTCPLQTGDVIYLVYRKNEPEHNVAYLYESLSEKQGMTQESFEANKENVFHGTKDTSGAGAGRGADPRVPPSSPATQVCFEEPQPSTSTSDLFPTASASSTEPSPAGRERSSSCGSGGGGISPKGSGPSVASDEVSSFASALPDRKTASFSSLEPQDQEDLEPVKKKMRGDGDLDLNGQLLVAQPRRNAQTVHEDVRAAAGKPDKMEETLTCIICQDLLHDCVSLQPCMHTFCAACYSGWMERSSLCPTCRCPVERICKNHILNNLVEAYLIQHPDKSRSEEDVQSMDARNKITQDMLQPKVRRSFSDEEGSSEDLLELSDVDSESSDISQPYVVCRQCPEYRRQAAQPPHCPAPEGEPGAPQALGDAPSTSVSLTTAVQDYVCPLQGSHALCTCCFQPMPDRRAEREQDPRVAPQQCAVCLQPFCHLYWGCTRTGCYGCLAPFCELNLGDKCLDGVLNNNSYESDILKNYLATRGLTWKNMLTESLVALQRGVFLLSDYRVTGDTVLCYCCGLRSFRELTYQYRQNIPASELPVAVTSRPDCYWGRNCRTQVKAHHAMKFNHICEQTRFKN
UniProt Q8N884, whole entry, looked up: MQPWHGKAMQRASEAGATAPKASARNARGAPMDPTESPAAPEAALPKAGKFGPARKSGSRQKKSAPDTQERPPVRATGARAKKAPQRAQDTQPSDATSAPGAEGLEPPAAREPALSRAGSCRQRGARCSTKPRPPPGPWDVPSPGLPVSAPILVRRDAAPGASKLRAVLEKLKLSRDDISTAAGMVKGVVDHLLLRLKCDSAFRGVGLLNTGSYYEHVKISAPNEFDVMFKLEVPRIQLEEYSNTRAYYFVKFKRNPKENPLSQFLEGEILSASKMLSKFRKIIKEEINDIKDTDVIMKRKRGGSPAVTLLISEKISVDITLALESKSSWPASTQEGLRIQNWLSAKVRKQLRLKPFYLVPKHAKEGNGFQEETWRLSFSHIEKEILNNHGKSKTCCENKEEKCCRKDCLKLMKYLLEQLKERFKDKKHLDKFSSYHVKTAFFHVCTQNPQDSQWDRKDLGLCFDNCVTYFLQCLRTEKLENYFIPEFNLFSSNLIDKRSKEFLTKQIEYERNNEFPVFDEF
UniProt P23141: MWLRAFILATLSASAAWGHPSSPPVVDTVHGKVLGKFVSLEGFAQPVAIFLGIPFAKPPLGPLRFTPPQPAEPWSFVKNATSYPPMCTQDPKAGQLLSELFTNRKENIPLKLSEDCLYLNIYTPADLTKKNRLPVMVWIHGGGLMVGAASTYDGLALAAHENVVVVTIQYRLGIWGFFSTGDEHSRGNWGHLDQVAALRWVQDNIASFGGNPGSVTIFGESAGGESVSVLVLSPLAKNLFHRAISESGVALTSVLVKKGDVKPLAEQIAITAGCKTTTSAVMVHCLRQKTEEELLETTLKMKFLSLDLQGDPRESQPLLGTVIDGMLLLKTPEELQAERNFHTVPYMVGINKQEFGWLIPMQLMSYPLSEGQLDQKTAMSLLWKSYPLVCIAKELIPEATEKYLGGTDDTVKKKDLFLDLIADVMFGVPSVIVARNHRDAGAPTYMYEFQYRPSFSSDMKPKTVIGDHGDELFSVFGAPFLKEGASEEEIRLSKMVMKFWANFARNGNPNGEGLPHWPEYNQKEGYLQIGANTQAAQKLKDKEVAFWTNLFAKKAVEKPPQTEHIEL

Compound: CC1Cc2ccccc2N1C(=O)C1CCCN(C1)C(=O)CCl (mixture of isomers) [TRIM25 ligand 11 (diastereomer mixture)]
Assay: probe-labelled cysteine peptide fold change vs DMSO (competition) (log2 fold change); higher = less target engagement (more negative = stronger competition)
Details: THP-1, incubation time: 4 h
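Also: competitive chemoproteomic profiling in live THP-1 cells with an iodoacetamide desthiobiotin (IA-DTB) probe, comparing probe-labelled peptide intensities in compound-treated cells against DMSO-treated controls.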

| Target | probe-labelled cysteine peptide fold change (10 µM) | probe-labelled cysteine peptide fold change (50 µM) |
| --- | --- | --- |
| CLASP2_O75122_129_SLLVAGAAQYDCFFQHLR (UniProt O75122) | -0.222 | 0.139 |
| CHAF1A_Q13111_761_EFQEHCR (UniProt Q13111) | -0.066 | 0.106 |
| CLIC1_O00299_24_IGNCPFSQR (UniProt O00299) | -0.0317 | 0.0307 |
| CFL1_P23528_147_CTLAEK (UniProt P23528) | -0.143 | -0.17 |
| CHD4_Q14839_396_AYHMVCLDPDMEK (UniProt Q14839) | 0.104 | 0.152 |
| CIAO1_O76071_19+34_CWFLAWNPAGTLLASCGGDR (UniProt O76071) | -0.0946 | 0.248 |
| CFD_P00746_148_VDRDVAPGTLCDVAGWGIVNHAGR (UniProt P00746) | 0.0362 | -0.395 |
| CLTC_Q00610_436_YESLELCRPVLQQGR (UniProt Q00610) | 0.0378 | 0.0435 |
| CLTC_Q00610_328_KGQVLSVCVEEENIIPYITNVLQNPDLALR (UniProt Q00610) | -0.266 | 0.239 |
| CHCHD3_Q9NX63_183_YESHPVCADLQAK (UniProt Q9NX63) | 0.143 | -0.0141 |
| CIAPIN1_Q6FI81_92_ILRPGGCLFLK (UniProt Q6FI81) | -0.0606 | 0.00519 |
| CIAO3_Q9H6Q4_270_DVDCVLTTGEVFR (UniProt Q9H6Q4) | 0.0144 | -0.227 |
| CIT_O14578_356_FEGLCCHPFFSK (UniProt O14578) | -0.0384 | 0.379 |
| CHPF2_Q9P2E5_223_YCHGGFGYLLSR (UniProt Q9P2E5) | -0.0435 | 0.149 |
| CLK2_P49760_180_VVQCVDHR (UniProt P49760) | 0.172 | 0.129 |
| CLPTM1_O96005_308_VSFCPLSLWR (UniProt O96005) | 0.134 | 0.102 |
| CIT_O14578_1392_CLECQVMCHPK (UniProt O14578) | -0.0102 | 0.126 |
| CHEK1_O14757_48_AVDCPENIK (UniProt O14757) | 0.214 | -0.0169 |

| Target | probe-labelled cysteine peptide fold change (10 µM) | probe-labelled cysteine peptide fold change (50 µM) |
| --- | --- | --- |
| CKAP5_Q14008_1795_ILDHLTMIDNKNESELEAHLCR (UniProt Q14008) | -0.154 | -0.261 |
| CHD9_Q3L8U1_1705_ADPALCFLER (UniProt Q3L8U1) | 0.0774 | 0.179 |
| CHFR_Q96EP1_95_KQTCPLQTGDVIYLVYR (UniProt Q96EP1) | -0.0245 | -0.0677 |
| CHM_P24386_102_TIQHVEVFCYASQDLHEDVEEAGALQK (UniProt P24386) | 0.18 | -0.164 |
| CHD4_Q14839_1018_CCNHPYLFPVAAMEAPK (UniProt Q14839) | -0.00857 | 0.0882 |
| CLCC1_Q96S66_60+67_DVSPDLSCADEISECYHK (UniProt Q96S66) | 0.0233 | -0.0365 |
| CHST11_Q9NPF2_89_RDQVTDTCR (UniProt Q9NPF2) | -0.0293 | -0.0834 |
| CHCHD3_Q9NX63_112_ERICSEEER (UniProt Q9NX63) | -0.235 | -0.228 |
| CIP2A_Q8TCG1_6_MDSTACLK (UniProt Q8TCG1) | -0.0544 | -0.151 |
| CFAP20_Q9Y6A4_61_ITDNDIQSLVLEIEGTNVSTTYITCPADPKK (UniProt Q9Y6A4) | 0.168 | -0.0256 |
| CGAS_Q8N884_446_TAFFHVCTQNPQDSQWDRK (UniProt Q8N884) | -0.0375 | 0.0965 |
| CGGBP1_Q9UFW8_92_QRPLTASLQCNSTAQTEK (UniProt Q9UFW8) | -0.0354 | -0.112 |
| CHD8_Q9HCK8_1913_LALCQPPGPELPK (UniProt Q9HCK8) | -0.0272 | -0.0498 |
| CLTCL1_P53675_918_RDPHLACVAYER (UniProt P53675) | -0.0314 | 0.0856 |
| CIAO1_O76071_123_SVAWAPSGNLLATCSR (UniProt O76071) | 0.00384 | 0.0653 |
| CES1_P23141_274_PLAEQIAITAGCK (UniProt P23141) | -0.141 | 0.297 |
| CES1_P23141_274_KGDVKPLAEQIAITAGCK (UniProt P23141) | 0.0873 | 0.147 |

Whole records, quoted from the list. Values in the order: probe-labelled cysteine peptide fold change (10 µM) | probe-labelled cysteine peptide fold change (50 µM)
CHFR_Q96EP1_95_KQTCPLQTGDVIYLVYR (UniProt Q96EP1) is listed with -0.0245 | -0.0677
CGAS_Q8N884_446_TAFFHVCTQNPQDSQWDRK (UniProt Q8N884) is listed with -0.0375 | 0.0965
CKAP5_Q14008_1795_ILDHLTMIDNKNESELEAHLCR (UniProt Q14008) is listed with -0.154 | -0.261
